In PubChem BioAssay AID190 (DTP/NCI, 2004) one finds survivor count and T/C data, which are given here for seven compounds.

This assay relates to AKR/Lw mice, AKR lymphoma ip, median survival T/C. Nature of the assay: NCI In Vivo Anticancer Drug Screen. Data for tumor model Lymphoma AKR (Transplanted) (intraperitoneal) in AKR/Lw mice. The following applies: T/C endpoint: median survival time, higher T/C = longer survival. The procedure:
The antitumor activity of compounds was measured in mice bearing transplantable tumors. Survival or tumor size were measured and the results are expressed as the measurement made in the treated group (T) divided by the measurement made in the vehicle treated control group (C). The tumor model used in this assay is Lymphoma AKR (Transplanted) (intraperitoneal) in AKR/Lw mice

Where [1] appears, read: dose: 200.0 mg/kg/injection, schedule: Q01DX001 (ip), vehicle: Klucel (hydroxypropylcellulose) (HPC).
[2] abbreviates: dose: 20.0 mg/kg/injection, schedule: Q04DX003 (ip), vehicle: Klucel (hydroxypropylcellulose) (HPC).
The mark [3] stands for this setting: dose: 50.0 mg/kg/injection, schedule: Q01DX001 (ip), vehicle: Klucel (hydroxypropylcellulose) (HPC).
Where [4] appears, read: dose: 50.0 mg/kg/injection, schedule: Q01DX001 (ip), vehicle: saline.
The mark [5] stands for this setting: dose: 100.0 mg/kg/injection, schedule: Q01DX001 (ip), vehicle: Klucel (hydroxypropylcellulose) (HPC).
[6] abbreviates: dose: 100.0 mg/kg/injection, schedule: Q01DX001 (ip), vehicle: saline.
The mark [7] stands for this setting: dose: 200.0 mg/kg/injection, schedule: Q01DX001 (ip), vehicle: saline.

The list is a part of this screen's results and no random one: it is rich in T/C values a quarter to a half above the control, in often repeated tests (any T/C) and in doses without a T/C. Other doses and runs of a compound stand elsewhere. T/C: endpoint of the treated group in % of that of the vehicle group. Some entries give survivors of the animals treated and no T/C: the source holds a T/C of zero for them, seemingly a mark for toxic or unscored doses. Some survivor counts are full or nearly so, which does not show that the dose was tolerated: the source hardly ever lists a survival T/C far under the control, and the zero likely stands for such cases as well. Counts of survivors are from the toxicity check (mostly the fifth day) where no day follows; animals may have died later. Schedules are NCI's codes, taken here to give the interval after Q, in days (D) or hours (H), and the number of doses after X. Some doses were run more than once; the values are given in rising order. Where survival is the endpoint, the PubChem record calls one and a half times the control and up active, and a quarter to a half above the control has no call in these data; cut-offs in other NCI protocols can differ. Some T/C values carry the count of animals alive at the toxicity check (mostly the fifth day); without a count, all were alive then.

As for `COc1ccc(CCN2C(=O)CSC2=S)cc1OC`, under setting [1], the survivor count was 10 of 10.
`O=C(NC(CSSCC(NC(=O)OCc1ccccc1)C(=O)O)C(=O)O)OCc1ccccc1` (stereo unspecified): the survivor count (dose: 200.0 mg/kg/injection, schedule: Q04DX003 (ip), vehicle: saline) was 10 of 10.
`O=C(O)CCCc1ccc(N(CCCl)CCCl)cc1`: the T/C (dose: 0.5 mg/kg/injection, schedule: Q01DX009 (ip), vehicle: Klucel (hydroxypropylcellulose) (HPC)) was 128 % of control; the T/C (dose: 2.5 mg/kg/injection, schedule: Q04DX003 (ip), vehicle: Klucel (hydroxypropylcellulose) (HPC)) was 145 % of control; the T/C (dose: 5.0 mg/kg/injection, schedule: Q01DX009 (ip), vehicle: saline) is 133 % of control [9 of 10 alive]; the T/C (dose: 8.0 mg/kg/injection, schedule: Q01DX009 (ip), vehicle: saline) is 146 % of control; the T/C (dose: 10.0 mg/kg/injection, schedule: Q04DX003 (ip), vehicle: Klucel (hydroxypropylcellulose) (HPC)) is recorded as 105, 111, 116, 140 % of control; the T/C under setting [2] is given as 94, 127, 142 % of control. For the same compound, the T/C (dose: 25.0 mg/kg/injection, schedule: Q01DX001 (ip), vehicle: Klucel (hydroxypropylcellulose) (HPC)) is 100, 110 [7 of 10 alive], 118 [7 of 10 alive], 122 % of control; the T/C (dose: 25.0 mg/kg/injection, schedule: Q01DX001 (ip), vehicle: saline) is 102 [9 of 10 alive], 111, 116, 133 % of control; the T/C under setting [3] is 88 [9 of 10 alive] and 129 % of control [9 of 10 alive]; the T/C under setting [4] is 106 [7 of 10 alive], 111, 116 % of control; the T/C under setting [6] is 126 [8 of 10 alive] and 131 % of control [9 of 10 alive]; the T/C under setting [7] is 104 % of control [8 of 10 alive]. In addition, the survivor count reads like this: (dose: 1.2 mg/kg/injection, schedule: Q04DX003 (ip), vehicle: saline) 5 of 10; (dose: 1.5 mg/kg/injection, schedule: Q01DX009 (ip), vehicle: saline) 9 of 10; (dose: 3.0 mg/kg/injection, schedule: Q01DX009 (ip), vehicle: saline) 9 of 10; (dose: 5.0 mg/kg/injection, schedule: Q04DX003 (ip), vehicle: saline) 10 of 10; (dose: 6.0 mg/kg/injection, schedule: Q01DX009 (ip), vehicle: saline) 10 of 10; (dose: 10.0 mg/kg/injection, schedule: Q01DX009 (ip), vehicle: Klucel (hydroxypropylcellulose) (HPC)) 9 of 10. Also, the survivor count is, setting by setting: (dose: 10.0 mg/kg/injection, schedule: Q01DX009 (ip), vehicle: saline) 7 of 10; (dose: 10.0 mg/kg/injection, schedule: Q04DX003 (ip), vehicle: saline) 5 of 10 and 10 of 10; (dose: 12.5 mg/kg/injection, schedule: Q01DX009 (ip), vehicle: saline) 10 of 10; (dose: 16.0 mg/kg/injection, schedule: Q01DX009 (ip), vehicle: saline) 10 of 10; (dose: 20.0 mg/kg/injection, schedule: Q01DX009 (ip), vehicle: saline) 7 of 10; under setting [2], 10 of 10. In addition, the survivor count is, setting by setting: (dose: 25.0 mg/kg/injection, schedule: Q01DX009 (ip), vehicle: saline) 0 of 10 and 9 of 10; (dose: 25.0 mg/kg/injection, schedule: Q04DX003 (ip), vehicle: saline) 9 of 10; (dose: 32.0 mg/kg/injection, schedule: Q01DX009 (ip), vehicle: saline) 9 of 10; (dose: 40.0 mg/kg/injection, schedule: Q04DX003 (ip), vehicle: Klucel (hydroxypropylcellulose) (HPC)) 9 of 10; under setting [3], 4 of 10 and 8 of 10; under setting [4], 6 of 10. Besides, the survivor count is 0 of 10 (dose: 50.0 mg/kg/injection, schedule: Q01DX009 (ip), vehicle: saline); 1 of 10 (dose: 50.0 mg/kg/injection, schedule: Q04DX003 (ip), vehicle: saline); 0 of 10 (dose: 64.0 mg/kg/injection, schedule: Q01DX009 (ip), vehicle: saline); 0 of 10 and 5 of 10 under setting [5]; 10 of 10 (dose: 100.0 mg/kg/injection, schedule: Q01DX001 (ip), vehicle: saline with Tween-80); 0 of 10, 1 of 10, 3 of 10 under setting [6]. The survivor count is, setting by setting: (dose: 100.0 mg/kg/injection, schedule: Q01DX009 (ip), vehicle: saline) 0 of 10; (dose: 100.0 mg/kg/injection, schedule: Q04DX003 (ip), vehicle: saline) 0 of 10; under setting [1], 0 of 10 and 5 of 10; (dose: 200.0 mg/kg/injection, schedule: Q01DX001 (ip), vehicle: saline with Tween-80) 10 of 10; under setting [7], 0 of 10 and 1 of 10; (dose: 400.0 mg/kg/injection, schedule: Q01DX001 (ip), vehicle: saline with Tween-80) 10 of 10. Besides, the survivor count (dose: 400.0 mg/kg/injection, schedule: Q01DX001 (ip), vehicle: saline) was 0 of 10 and 6 of 10.
With `Cc1ccc(N=C(c2ccc([N+](=O)[O-])cc2)c2ccc([N+](=O)[O-])cc2)cc1`, the survivor count is reported as 10 of 10 under setting [5] and 10 of 10 (dose: 400.0 mg/kg/injection, schedule: Q01DX001 (ip), vehicle: Klucel (hydroxypropylcellulose) (HPC)).
On to `CCOC(=O)CCCl`, for which the survivor count under setting [5] is 10 of 10.
Regarding `c1cc2cc3c(cc2cc1CC1NCCc2cc4c(cc21)OCO4)OCO3` (stereo unspecified), the survivor count is on record as 9 of 10 (dose: 200.0 mg/kg/injection, schedule: Q04DX003 (ip), vehicle: Klucel (hydroxypropylcellulose) (HPC)) and 1 of 10 (dose: 400.0 mg/kg/injection, schedule: Q04DX003 (ip), vehicle: Klucel (hydroxypropylcellulose) (HPC)).
As for `Cc1c(C(=O)O)cc2n(c1=O)Cc1cc3ccccc3nc1-2`, under “dose: 200.0 mg/kg/injection, schedule: Q04DX003 (ip), vehicle: saline with Tween-80”, the survivor count is 10 of 10.
